Assay results published in patent US5846731A, “Peralkylated oligopeptide mixtures” (Torry Pines Institute for Molecular Studies, priority 1993, dated 1998).
Not every detail of the peptide structures is certain; ends, links or a residue may be inferred. Non-standard residues stand in square brackets, D forms with d. Residues, ends and D or L forms follow the SMILES beside them. *: point of attachment. X1 = C[N+](C)(C)[C@@H](Cc1ccccc1)C(=O)*; NMeF = CN[C@@H](Cc1ccccc1)C(=O)O

System: Staphylococcus aureus (ATCC 29213)
Assay: Antimicrobial activity against S. aureus (growth inhibition, OD 620 nm)
Type: cell-based
Procedure: The two types of libraries of positional libraries of Example 5 were also scanned against Staphylococcus aureus a Gram-positive bacterium. Concentrations of those 5× permethylated peptide mixtures that inhibited cellular growth by 50 percent (IC50) values were determined.
The permethylated amino acid and peptides were screened against S. aureus, as described before and IC50 and MIC (minimum inhibitory concentration; minimum concentration needed to inhibit about 100 percent bacterial growth) values were determined.
Staphylococcus aureus (ATCC 29213) were grown overnight (about 18 hours) at 37° C. in Mueller-Hinton (MH) broth. This culture was reinoculated and incubated at 37° C. to reach the exponential phase of bacterial growth; i.e., a final bacterial suspension containing about 10^5 to 5×10^5 colony-forming units (CFU)/ml. The concentration of cells was established by plating 100 μl of different dilutions of the culture solution (e.g., 10^-2, 10^-3 and 10^-4) onto solid agar plates. Following an overnight (about 18 hours) incubation at 37° C., the CFU thus formed were counted on each agar plate.
96-Well tissue culture plates were utilized, with eight wells per plate containing only medium as control blanks, whereas eight other wells contained medium plus cells as a positive growth control. These controls were used to detect possible medium contamination and to provide a measure of uninhibited growth of the microorganisms.
For determination of IC50 values (concentrations necessary to inhibit 50 percent growth of bacteria), peralkylated oligopeptide sets were added to the bacterial suspension at concentrations noted before. The plates were incubated overnight (about 18 hours) at 37° C., and the optical density (OD) determined at 620 nm after different times of incubation. IC50 Values were then determined from the OD data.

[1] = Assay 1, individual permethylated peptides
[2] = Assay 1, minimum concentration to inhibit about 100 percent bacterial growth
[3] = Assay 2, individual permethylated peptides
[4] = Assay 2, minimum concentration to inhibit about 100 percent bacterial growth

SMILES | IC50 [1] | MIC Value [2] | IC50 [3] | MIC Value [4] | IC50 (Data from a third assay) | MIC Value (Data from a third assay) | overall potency increase as each residue was added (PerA-F to PerA-FFFFFF series)
CNC(=O)[C@H](Cc1ccccc1)N(C)C(=O)[C@H](Cc1ccccc1)N(C)C(=O)[C@H](Cc1ccccc1)N(C)C(=O)[C@H](Cc1ccccc1)N(C)C(=O)[C@H](Cc1ccccc1)N(C)C(=O)[C@H](Cc1ccccc1)[N+](C)(C)C [PerA--FFFFFF] (X1-[NMeF][NMeF][NMeF][NMeF][NMeF]-NHMe) | 3.35 µM | 7.82 µM | < 3.91 µM | < 3.91 µM | 2.63 µM | 3.91 µM | over 2 orders of magnitude
CNC(=O)[C@H](Cc1ccccc1)N(C)C(=O)[C@H](Cc1ccccc1)N(C)C(=O)[C@H](Cc1ccccc1)N(C)C(=O)[C@H](Cc1ccccc1)N(C)C(=O)[C@H](Cc1ccccc1)[N+](C)(C)C [PerA--FFFFF] (X1-[NMeF][NMeF][NMeF][NMeF]-NHMe) | 18.7 µM | 31.25 µM | 18.7 µM | 31.25 µM | – | – | –
CNC(=O)[C@H](Cc1ccccc1)N(C)C(=O)[C@H](Cc1ccccc1)N(C)C(=O)[C@H](Cc1ccccc1)N(C)C(=O)[C@H](Cc1ccccc1)[N+](C)(C)C [PerA--FFFF] | 118 µM | 250 µM | 113 µM | 250 µM | – | – | –
CNC(=O)[C@H](Cc1ccccc1)N(C)C(=O)[C@H](Cc1ccccc1)N(C)C(=O)[C@H](Cc1ccccc1)[N+](C)(C)C [PerA--FFF] | 286 µM | – | 291 µM | – | – | – | –
